Taken from: PubChem BioAssay AID1259308 (NCATS, 2017)

- Screen: 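Knock-downs that increase output of a recombinant reporter protein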 (primary screen)
- Cells: human HEK293 embryonic kidney cells stably expressing firefly luciferase (HEK-CMV-Luc2-Hygro)
- Knock-down reagent: single siRNA against human genes, 0.8 pmol siRNA per well
- Timing: 72 h
- Detection: 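Reporter luminescence and viable-cell signal on separate replicate plates, given as percent of non-targeting control and median/MAD z-scores, plus per-cell luciferase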
- Direction: total luciferase, z-score and total luciferase, % of control: higher = more reporter protein produced; luciferase per cell, z-score: higher = more reporter output per viable cell; viable cells, % of control: higher = more viable cells
- Call rule: 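An siRNA counts as active if its total luciferase robust z-score exceeds 3; genes with two or more such siRNAs out of three were retested with fresh siRNAs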
- Meaning of the calls: active = raised luciferase; inactive = no rise
This is one part, drawn at random, of about 59,000 reagents tested. About 1,510 of them (2.6%) count as active. 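Calls use total luciferase alone and ignore viability, so some active siRNAs may act by altering cell number.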 The numbers tell different reagents against one gene apart.

| Gene | reagent | total luciferase, z-score | total luciferase, % of control | luciferase per cell, z-score | viable cells, % of control | activity call |
| --- | --- | --- | --- | --- | --- | --- |
| AKIP1 (GeneID 56672) | 1 | -0.373 | 74.5 | -0.447 | 93.6 | inactive |
| AKIP1 (GeneID 56672) | 2 | -0.631 | 69.3 | -0.346 | 84.9 | inactive |
| AKIP1 (GeneID 56672) | 3 | 0.35 | 88.8 | 0.57 | 85.4 | inactive |
| EID2 (GeneID 163126) | 1 | 0.0726 | 83.3 | 0.304 | 86 | inactive |
| EID2 (GeneID 163126) | 2 | -0.25 | 76.9 | -0.634 | 102 | inactive |
| EID2 (GeneID 163126) | 3 | -0.305 | 75.8 | -0.922 | 108 | inactive |
| TAF9 (GeneID 6880) | 1 | -0.598 | 70 | -1.82 | 126 | inactive |
| TAF9 (GeneID 6880) | 2 | -0.744 | 67.1 | 0.0556 | 73.9 | inactive |
| TAF9 (GeneID 6880) | 3 | -1.03 | 61.4 | -0.927 | 87.6 | inactive |
| GKAP1 (GeneID 80318) | 1 | 1.59 | 114 | 0.415 | 114 | inactive |
| GKAP1 (GeneID 80318) | 2 | -0.312 | 75.7 | -0.676 | 101 | inactive |
| GKAP1 (GeneID 80318) | 3 | 2.18 | 125 | 2.08 | 80.9 | inactive |
| SDSL (GeneID 113675) | 1 | -0.709 | 67.8 | -0.269 | 81.3 | inactive |
| SDSL (GeneID 113675) | 2 | -0.3 | 75.9 | -1.16 | 115 | inactive |
| SDSL (GeneID 113675) | 3 | -2.15 | 39.2 | -1.23 | 60.5 | inactive |
| MIR34BHG (GeneID 728196) | 1 | -0.383 | 74.3 | 0.44 | 73.9 | inactive |
| MIR34BHG (GeneID 728196) | 2 | 0.226 | 86.4 | -0.0111 | 96.8 | inactive |
| MIR34BHG (GeneID 728196) | 3 | 1.22 | 106 | 0.562 | 102 | inactive |
| OR2T27 (GeneID 403239) | 1 | -1.76 | 46.9 | -1.16 | 71.1 | inactive |
| OR2T27 (GeneID 403239) | 2 | -0.564 | 70.7 | -0.6 | 92.5 | inactive |
| OR2T27 (GeneID 403239) | 3 | -0.315 | 75.6 | -0.539 | 97.4 | inactive |
| RAPGEF1 (GeneID 2889) | 1 | 0.296 | 87.8 | -0.194 | 103 | inactive |
| RAPGEF1 (GeneID 2889) | 2 | -1.5 | 52 | -1.05 | 76.6 | inactive |
| RAPGEF1 (GeneID 2889) | 3 | -1.15 | 59 | -1.47 | 97.1 | inactive |
| DMGDH (GeneID 29958) | 1 | 0.682 | 95.5 | 0.486 | 93.9 | inactive |
| DMGDH (GeneID 29958) | 2 | -0.964 | 62.7 | -0.144 | 72.8 | inactive |
| DMGDH (GeneID 29958) | 3 | 0.614 | 94.1 | 0.145 | 101 | inactive |
| SLC22A6 (GeneID 9356) | 1 | -0.716 | 67.7 | -0.87 | 95.1 | inactive |
| SLC22A6 (GeneID 9356) | 2 | -1.62 | 49.6 | -0.806 | 68.6 | inactive |
| SLC22A6 (GeneID 9356) | 3 | 1.64 | 114 | 2.2 | 71.7 | inactive |

Already shown: entries from further up.
| Gene | reagent | total luciferase, z-score | total luciferase, % of control | luciferase per cell, z-score | viable cells, % of control | activity call |
| --- | --- | --- | --- | --- | --- | --- |
| AKIP1 (GeneID 56672) | 3 | 0.35 | 88.8 | 0.57 | 85.4 | inactive |
| EID2 (GeneID 163126) | 1 | 0.0726 | 83.3 | 0.304 | 86 | inactive |
| EID2 (GeneID 163126) | 2 | -0.25 | 76.9 | -0.634 | 102 | inactive |
| EID2 (GeneID 163126) | 3 | -0.305 | 75.8 | -0.922 | 108 | inactive |
| TAF9 (GeneID 6880) | 1 | -0.598 | 70 | -1.82 | 126 | inactive |

Additional records follow.
| Gene | reagent | total luciferase, z-score | total luciferase, % of control | luciferase per cell, z-score | viable cells, % of control | activity call |
| --- | --- | --- | --- | --- | --- | --- |
| OR52R1 (GeneID 119695) | 1 | -0.316 | 75.6 | -0.314 | 91.8 | inactive |
| OR52R1 (GeneID 119695) | 2 | -0.22 | 77.5 | 0.394 | 78.1 | inactive |
| OR52R1 (GeneID 119695) | 3 | -0.903 | 63.9 | -0.698 | 85.8 | inactive |
| CFAP126 (GeneID 257177) | 1 | 0.148 | 84.8 | 0.185 | 90.3 | inactive |
| CFAP126 (GeneID 257177) | 2 | -0.247 | 77 | -0.519 | 98.6 | inactive |
| CFAP126 (GeneID 257177) | 3 | -1.33 | 55.5 | -2.15 | 109 | inactive |
| TNFRSF4 (GeneID 7293) | 1 | -0.513 | 71.7 | -0.163 | 83.6 | inactive |
| TNFRSF4 (GeneID 7293) | 2 | -0.68 | 68.4 | -1.06 | 101 | inactive |
| TNFRSF4 (GeneID 7293) | 3 | 1.66 | 115 | 2.22 | 71.5 | inactive |
| APH1A (GeneID 51107) | 1 | -2.09 | 40.3 | -2.78 | 93.5 | inactive |
| APH1A (GeneID 51107) | 2 | -1.58 | 50.5 | -0.751 | 68.7 | inactive |
| APH1A (GeneID 51107) | 3 | -1.67 | 48.6 | -1.69 | 84.8 | inactive |
| OR56B4 (GeneID 196335) | 1 | -0.744 | 67.1 | -0.272 | 80.5 | inactive |
| OR56B4 (GeneID 196335) | 2 | 0.527 | 92.4 | 0.274 | 96 | inactive |
| OR56B4 (GeneID 196335) | 3 | -0.992 | 62.2 | -0.12 | 71.7 | inactive |
| LOC729291 (GeneID 729291) | 1 | 0.951 | 101 | 0.429 | 101 | inactive |
| LOC729291 (GeneID 729291) | 2 | -0.00337 | 81.8 | -0.462 | 103 | inactive |
| LOC729291 (GeneID 729291) | 3 | -0.536 | 71.2 | -0.718 | 96.1 | inactive |
| IRF3 (GeneID 3661) | 1 | -0.0727 | 80.4 | -0.459 | 101 | inactive |
| IRF3 (GeneID 3661) | 2 | 0.368 | 89.2 | 0.957 | 77.5 | inactive |
| IRF3 (GeneID 3661) | 3 | -0.321 | 75.5 | -0.0792 | 86.1 | inactive |
| HDAC7 (GeneID 51564) | 1 | 0.453 | 90.9 | 1.13 | 75.4 | inactive |
| HDAC7 (GeneID 51564) | 2 | -1.36 | 54.9 | -0.82 | 76.1 | inactive |
| HDAC7 (GeneID 51564) | 3 | -0.0853 | 80.2 | 0.698 | 74.6 | inactive |
| TMC6 (GeneID 11322) | 1 | -0.524 | 71.5 | -0.528 | 91.8 | inactive |
| TMC6 (GeneID 11322) | 2 | -1.28 | 56.5 | -1.25 | 87.8 | inactive |
| TMC6 (GeneID 11322) | 3 | 1.22 | 106 | 0.549 | 103 | inactive |
